Assay [1] deals with T1, SLAH3-YFP (Arabidopsis thaliana) (UniProt Q9FLV9).
T1 sequence: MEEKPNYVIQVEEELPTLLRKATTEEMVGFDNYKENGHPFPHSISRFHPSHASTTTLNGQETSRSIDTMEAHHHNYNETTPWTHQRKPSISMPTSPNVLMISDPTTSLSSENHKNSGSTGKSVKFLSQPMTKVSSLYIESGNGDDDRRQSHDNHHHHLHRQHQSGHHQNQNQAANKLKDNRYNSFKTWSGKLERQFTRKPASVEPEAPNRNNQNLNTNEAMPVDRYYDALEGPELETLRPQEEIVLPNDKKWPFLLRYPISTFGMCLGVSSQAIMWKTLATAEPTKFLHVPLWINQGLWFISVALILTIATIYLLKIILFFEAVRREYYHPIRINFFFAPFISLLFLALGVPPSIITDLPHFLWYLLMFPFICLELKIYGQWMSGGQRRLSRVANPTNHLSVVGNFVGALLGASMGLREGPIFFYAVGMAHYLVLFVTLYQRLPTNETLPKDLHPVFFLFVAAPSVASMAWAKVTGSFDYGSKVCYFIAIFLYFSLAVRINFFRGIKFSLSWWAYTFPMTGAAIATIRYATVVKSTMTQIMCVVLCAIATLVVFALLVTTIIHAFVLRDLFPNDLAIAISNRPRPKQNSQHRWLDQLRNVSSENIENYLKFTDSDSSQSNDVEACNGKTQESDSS
Description: FRET or BRET; sensitized emission; SnRK1.1/mSnRK1.1-CFP donor, SLAH3-YFP acceptor, coexpressed in planta. In general terms: Bioluminescence resonance energy transfer reports proximity on the nanometre scale.

The target in assay [2] is T1, SLAH3-YFP (Arabidopsis thaliana). Description: FRET or BRET; acceptor photobleaching; SnRK1.1/mSnRK1.1-CFP donor, SLAH3-YFP acceptor, coexpressed in planta.
The target in assay [3] is T2, full-length SLAH3, mbSUS fusion (Arabidopsis thaliana) (UniProt Q9FLV9).
T2 sequence: T1 sequence
Kind of assay: mating-based split ubiquitin system (mbSUS); diploid yeast (THY.AP4 x THY.AP5) grown on SD minimal medium with 0, 150, 300 or 500 uM Met; SLAH3 in pMetYCgate, SnRK1.1 in pX-NubWTgate.

The target of assay [4] is T3, full length SLAH3, BiFC fusion (Arabidopsis thaliana) (UniProt Q9FLV9).
T3 sequence: T1 sequence
Kind of assay: split reporter; BiFC (split YFP) in transiently transformed leaf epidermal cells and isolated mesophyll protoplasts of N. benthamiana.

Changes are numbered by the printed parent chain. Names and notes keep the numbering of the source. No constants are given. Whether binding was seen depends on the method and setting. Binding seen in cells or lysates may run through a third protein. Some binding calls cover weakened binding; strength is not graded here. Where a sequence is shown, tags or fusion partners need not be part of it.

The values that follow come from PMC8154061.

B1: SnRK1.1-CFP (protein, UniProt Q38997 1-512)
chain: MDGSGTGSRSGVESILPNYKLGRTLGIGSFGRVKIAEHALTGHKVAIKILNRRKIKNMEMEEKVRREIKILRLFMHPHIIRLYEVIETPTDIYLVMEYVNSGELFDYIVEKGRLQEDEARNFFQQIISGVEYCHRNMVVHRDLKPENLLLDSKCNVKIADFGLSNIMRDGHFLKTSCGSPNYAAPEVISGKLYAGPEVDVWSCGVILYALLCGTLPFDDENIPNLFKKIKGGIYTLPSHLSPGARDLIPRMLVVDPMKRVTIPEIRQHPWFQAHLPRYLAVPPPDTVQQAKKIDEEILQEVINMGFDRNHLIESLRNRTQNDGTVTYYLILDNRFRASSGYLGAEFQETMEGTPRMHPAESVASPVSHRLPGLMEYQGVGLRSQYPVERKWALGLQSRAHPREIMTEVLKALQDLNVCWKKIGHYNMKCRWVPNSSADGMLSNSMHDNNYFGDESSIIENEAAVKSPNVVKFEIQLYKTRDDKYLLDLQRVQGPQFLFLDLCAAFLAQLRVL
On to B1, for which the binding entry in assay [1] and in assay [2] was “binds” each time.

B2: mSnRK1.1 (K48M), mbSUS fusion (protein, UniProt Q38997 1-512)
chain: B1 chain with K48M
Regarding B2, the binding entry in assay [3] is reported as “binds”.

B3: SnRK1.1, BiFC fusion (protein, UniProt Q38997 1-512)
chain: B1 chain
With B3, in assay [4], the binding result is “binds”.

B4: mSnRK1.1-CFP (protein, UniProt Q38997 1-512)
chain: B1 chain with K48M
B4: the binding entry in assay [1] and in assay [2] was “binds” throughout.

B5: SnRK1.1, mbSUS fusion (protein, UniProt Q38997 1-512)
chain: B1 chain
Consider B5, for which the binding result in assay [3] is “binds”.

B6: kinase-dead variant (K48M) of SnRK1.1 (mSnRK1.1), BiFC fusion (protein, UniProt Q38997 1-512)
chain: B1 chain with K48M
As to B6, in assay [4], the binding result is listed as “binds”.
